{"sequences": {"note": "By UniProt entry, the sequences of proteins in these tests, tags left out. Where a name states a change or a piece, a line headed by the entry shows the natural chain unless it says otherwise.", "UniProt P9WNU1": "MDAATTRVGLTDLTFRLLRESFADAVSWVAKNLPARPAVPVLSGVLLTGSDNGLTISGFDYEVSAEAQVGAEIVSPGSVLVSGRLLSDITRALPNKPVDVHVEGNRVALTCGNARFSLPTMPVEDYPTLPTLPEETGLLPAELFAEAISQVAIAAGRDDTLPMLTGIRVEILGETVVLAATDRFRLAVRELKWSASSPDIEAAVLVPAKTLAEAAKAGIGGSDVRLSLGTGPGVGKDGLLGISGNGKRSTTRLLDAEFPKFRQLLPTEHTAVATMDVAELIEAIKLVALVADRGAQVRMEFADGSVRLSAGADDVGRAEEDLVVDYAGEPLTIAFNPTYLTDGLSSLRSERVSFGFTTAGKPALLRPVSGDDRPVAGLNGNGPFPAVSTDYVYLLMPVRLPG", "UniProt P9WNT7": "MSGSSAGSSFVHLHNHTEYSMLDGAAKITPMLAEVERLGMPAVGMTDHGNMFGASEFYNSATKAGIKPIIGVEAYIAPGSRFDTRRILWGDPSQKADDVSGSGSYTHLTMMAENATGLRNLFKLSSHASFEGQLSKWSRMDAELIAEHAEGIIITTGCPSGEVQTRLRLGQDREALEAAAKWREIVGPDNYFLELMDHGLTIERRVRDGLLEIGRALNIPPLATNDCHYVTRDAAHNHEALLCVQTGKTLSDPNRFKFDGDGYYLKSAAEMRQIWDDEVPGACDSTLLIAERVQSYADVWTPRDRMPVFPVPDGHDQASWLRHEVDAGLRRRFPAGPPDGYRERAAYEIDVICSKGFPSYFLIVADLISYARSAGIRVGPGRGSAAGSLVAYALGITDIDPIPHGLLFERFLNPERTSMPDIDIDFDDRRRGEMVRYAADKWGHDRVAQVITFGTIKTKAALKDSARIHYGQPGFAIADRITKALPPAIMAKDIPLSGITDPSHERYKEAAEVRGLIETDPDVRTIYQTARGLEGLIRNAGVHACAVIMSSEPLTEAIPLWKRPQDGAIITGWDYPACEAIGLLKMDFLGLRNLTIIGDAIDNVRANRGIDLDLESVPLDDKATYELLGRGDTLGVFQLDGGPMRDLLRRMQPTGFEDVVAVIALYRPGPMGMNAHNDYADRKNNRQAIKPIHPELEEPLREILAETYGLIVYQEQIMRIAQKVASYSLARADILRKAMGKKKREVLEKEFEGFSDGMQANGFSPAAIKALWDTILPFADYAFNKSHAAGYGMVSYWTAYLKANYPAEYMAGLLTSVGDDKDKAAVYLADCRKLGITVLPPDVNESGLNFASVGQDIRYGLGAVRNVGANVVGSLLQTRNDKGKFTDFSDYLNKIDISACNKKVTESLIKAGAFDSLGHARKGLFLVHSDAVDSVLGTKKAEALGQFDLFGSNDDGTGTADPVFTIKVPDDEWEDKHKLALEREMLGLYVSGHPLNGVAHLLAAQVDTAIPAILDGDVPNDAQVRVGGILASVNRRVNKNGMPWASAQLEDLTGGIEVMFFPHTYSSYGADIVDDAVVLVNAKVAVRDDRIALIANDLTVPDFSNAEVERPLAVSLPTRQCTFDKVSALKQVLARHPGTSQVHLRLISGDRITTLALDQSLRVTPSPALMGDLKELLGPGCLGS"}, "source": "paper PMC5636811", "about": "“High-fidelity DNA replication in Mycobacterium tuberculosis relies on a trinuclear zinc center”", "target": "Mycobacterium tuberculosis β-clamp (Mycobacterium tuberculosis) (UniProt P9WNU1)", "assay": "cryo-EM structure; both purified", "note": "These are yes or no findings as the source states them, for the method shown. A result given as binding can be weak or reduced; the word gives no strength."}
{"substance": "Mycobacterium tuberculosis DnaE1 polymerase (from UniProt P9WNT7) (enzyme)", "values": [{"measurement": "binding", "value": "binds"}]}
